Experimental data taken from PubChem BioAssay AID342 (DTP/NCI, 2004).
The list shows only some results of the screen, not a fair sample: it is rich in T/C values a quarter to a half above the control, in often repeated tests (any T/C) and in doses without a T/C. Other doses and runs of a compound stand elsewhere. T/C: endpoint of the treated group in % of that of the vehicle group. Schedules are NCI's codes, taken here to give the interval after Q, in days (D) or hours (H), and the number of doses after X. Some T/C values are followed by the survivors on the day toxicity was checked, most often the fifth; where none is given, no animal had died by that day. Some entries hold several experiments; the values are given in rising order. Signs of the kind (2×) count equal records among those shown. Some entries give survivors of the animals treated and no T/C: the source holds a T/C of zero for them, seemingly a mark for toxic or unscored doses. Survivors were counted at the toxicity check, usually on the fifth day, unless a day is given; later deaths do not show. Some schedules carry Z or #; the key to these is not given.

System: Swiss mice, Sarcoma 180 sc, mean tumor weight T/C
Assay: NCI In Vivo Anticancer Drug Screen. Data for tumor model Sarcoma 180 (subcutaneous) in Swiss mice
Conditions: T/C endpoint: mean tumor weight, higher T/C = larger tumour; for T/C: evaluated on day 8
Procedure, shortened: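 Mice bearing transplanted tumors were treated with compound, and survival or tumor size was measured. Values are expressed as the treated-group measurement (T) divided by the vehicle-treated control measurement (C).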

[1] = dose: 250.0 mg/kg/injection, schedule: Q01DX007 (ip), vehicle: saline
[2] = dose: 333.0 mg/kg/injection, schedule: Q01DX007 (ip), vehicle: saline
[3] = dose: 500.0 mg/kg/injection, schedule: Q01DX007 (ip), vehicle: saline
[4] = dose: 750.0 mg/kg/injection, schedule: Q01DX007 (ip), vehicle: saline
[5] = dose: 125.0 mg/kg/injection, schedule: Q01DX007 (ip), vehicle: carboxymethylcellulose (CMC)
[6] = dose: 45.0 mg/kg/injection, schedule: Q01DX007 (ip), vehicle: other
[7] = dose: 250.0 mg/kg/injection, schedule: Q01DX007 (ip), vehicle: carboxymethylcellulose (CMC)

NCCc1ccccc1
survivor count (dose: 125.0 mg/kg/injection, schedule: Q01DX007 (ip), vehicle: saline): 0 of 6 | survivor count [1]: 0 of 6

CC(=O)Nc1c(Cl)cc2c(c1Cl)Cc1cc([N+](=O)[O-])ccc1-2
survivor count [2]: 2 of 6 | survivor count [3]: 2 of 6 | survivor count [4]: 3 of 6

CCCCn1cnc2c(SSc3ncnc4c3ncn4CCCC)ncnc21
survivor count (dose: 53.0 mg/kg/injection, schedule: Q01DX007 (ip), vehicle: saline): 1 of 6 | survivor count (dose: 83.0 mg/kg/injection, schedule: Q01DX007 (ip), vehicle: carboxymethylcellulose (CMC)): 2 of 7 | survivor count [5]: 0 of 7 | survivor count (dose: 187.0 mg/kg/injection, schedule: Q01DX007 (ip), vehicle: carboxymethylcellulose (CMC)): 0 of 7 | survivor count (dose: 187.0 mg/kg/injection, schedule: Q01DX007 (ip), vehicle: saline): 2 of 6

CC(C)=CCC1=C(O)c2ccccc2C(=O)C1=O
T/C [6]: 125 % of control | survivor count (dose: 300.0 mg/kg/injection, schedule: Q#A X014 (oral), vehicle: other): 1 of 6

Nc1n[se]nc1C(=O)O
survivor count (dose: 4.0 mg/kg/injection, schedule: Q01DX007 (ip), vehicle: carboxymethylcellulose (CMC)): 0 of 6

[Cu+2].[O-]c1ccc(Br)c2cccnc12.[O-]c1ccc(Br)c2cccnc12
survivor count (dose: 9.4 mg/kg/injection, schedule: Q01DX007 (ip), vehicle: carboxymethylcellulose (CMC)): 1 of 6 | survivor count (dose: 14.0 mg/kg/injection, schedule: Q01DX007 (ip), vehicle: carboxymethylcellulose (CMC)): 0 of 6 and 0 of 7 | survivor count (dose: 21.0 mg/kg/injection, schedule: Q01DX007 (ip), vehicle: carboxymethylcellulose (CMC)): 0 of 7 | survivor count (dose: 32.0 mg/kg/injection, schedule: Q01DX007 (ip), vehicle: carboxymethylcellulose (CMC)): 0 of 7 | survivor count (dose: 48.0 mg/kg/injection, schedule: Q01DX007 (ip), vehicle: carboxymethylcellulose (CMC)): 0 of 7 | survivor count (dose: 48.0 mg/kg/injection, schedule: Q01DX007 (ip), vehicle: other): 0 of 6

Cn1c2c(c3ccccc31)CCN1C[C@@H]3CCCC[C@H]3C[C@@H]21
survivor count (dose: 75.0 mg/kg/injection, schedule: Q01DX007 (ip), vehicle: saline): 0 of 6 | survivor count (dose: 110.0 mg/kg/injection, schedule: Q01DX007 (ip), vehicle: saline): 1 of 6 | survivor count (dose: 165.0 mg/kg/injection, schedule: Q01DX007 (ip), vehicle: saline): 0 of 6 | survivor count [1]: 0 of 6

O=CNc1c(Br)cc2c(c1Br)Cc1cc([N+](=O)[O-])ccc1-2
survivor count (dose: 26.6 mg/kg/injection, schedule: Q01DX007 (ip), vehicle: carboxymethylcellulose (CMC)): 3 of 6 | survivor count (dose: 40.0 mg/kg/injection, schedule: Q01DX007 (ip), vehicle: carboxymethylcellulose (CMC)): 2 of 6 | survivor count (dose: 60.0 mg/kg/injection, schedule: Q01DX007 (ip), vehicle: carboxymethylcellulose (CMC)): 1 of 6 | survivor count (dose: 90.0 mg/kg/injection, schedule: Q01DX007 (ip), vehicle: carboxymethylcellulose (CMC)): 0 of 6

CC1CCOS(=O)O1 (centres undefined)
T/C (dose: 6.25 mg/kg/injection, schedule: Q01DX007 (oral), vehicle: propolene glycol): 149 % of control | T/C (dose: 24.0 mg/kg/injection, schedule: Q01DX007 (ip), vehicle: carboxymethylcellulose (CMC)): 137 % of control

NC1(C(=O)O)CCCC1
survivor count (dose: 112.5 mg/kg/injection, schedule: Q#A X014 (ip), vehicle: saline): 2 of 6 | survivor count [1]: 3 of 6 | survivor count [3]: 2 of 6

COC1C(OC(N)=O)C(O)C(Oc2ccc3c(O)c(NC(=O)c4ccc(O)c(CC=C(C)C)c4)c(=O)oc3c2C)OC1(C)C (centres undefined)
T/C (dose: 100.0 mg/kg/injection, schedule: Q01DX007 (ip), vehicle: saline): 130 % of control | survivor count (dose: 300.0 mg/kg/injection, schedule: Q01DX007 (ip), vehicle: saline): 3 of 6

O=C(O)c1ccccc1C(=O)OCc1ccccc1
T/C [5]: 131 % of control | T/C [7]: 132 % of control [4 of 6 alive]

O=C(O)CCCNC(=O)c1ccc([N+](=O)[O-])cc1
survivor count (dose: 500.0 mg/kg/injection, schedule: Q01DX007 (ip), vehicle: methylcellulose (MC)): 3 of 6

O=C(O)C(=O)c1ccc(-c2ccccc2)cc1
survivor count (dose: 62.5 mg/kg/injection, schedule: Q01DX007 (ip), vehicle: carboxymethylcellulose (CMC)): 2 of 6 | survivor count [5]: 2 of 6 | survivor count [7]: 0 of 6 | survivor count (dose: 500.0 mg/kg/injection, schedule: Q01DX007 (ip), vehicle: carboxymethylcellulose (CMC)): 0 of 6

Cc1ccc(NC(C(=O)c2ccccc2)c2ccccc2)cc1 (centres undefined)
survivor count (dose: 336.0 mg/kg/injection, schedule: Q01DX007 (ip), vehicle: saline): 0 of 7 | survivor count (dose: 504.0 mg/kg/injection, schedule: Q01DX007 (ip), vehicle: saline): 1 of 7

COc1ccc(C[C@H]2NC[C@H](O)[C@H]2OC(C)=O)cc1
survivor count (dose: 200.0 mg/kg/injection, schedule: Q01DX007 (ip), vehicle: saline): 2 of 6

CC(=O)OCC(=O)[C@@]1(O)CC[C@H]2[C@@H]3CCC4=CC(=O)CC[C@]4(C)[C@H]3[C@@H](O)C[C@@]21C
survivor count (dose: 100.0 mg/kg/injection, schedule: Q#A X014 (ip), vehicle: steroid suspending solution): 1 of 6

CCc1nc(N)nc(N)c1-c1ccc(Cl)c(Cl)c1.O.O.[Zn]
survivor count (dose: 18.0 mg/kg/injection, schedule: Q01DX007 (ip), vehicle: carboxymethylcellulose (CMC)): 3 of 6

C=CCn1cnc2c(=S)nc[nH]c21
survivor count [5]: 3 of 6 | survivor count [7]: 1 of 6

CC1=C(/C=C/C(C)=N/NC(N)=S)C(C)(C)CCC1
survivor count [6]: 0 of 6

C=CN1CCCC1=O
T/C (dose: 68.0 mg/kg/injection, schedule: Q01DX007 (ip), vehicle: saline): 132 % of control | T/C (dose: 222.0 mg/kg/injection, schedule: Q01DX007 (ip), vehicle: saline): 43 (2×), 45, 49 [5 of 6 alive], 112 % of control | T/C [2]: 2 [5 of 6 alive], 31 [5 of 6 alive], 35, 40, 46 % of control | survivor count [3]: 3 of 6 | survivor count [4]: 0 of 6

NCCCC(NC(=O)CCCCCCCCN=C(N)N)C(O)CCCCCCCCN=C(N)N (centres undefined)
survivor count (dose: 20.0 mg/kg/injection, schedule: Q01DX007 (ip), vehicle: carboxymethylcellulose (CMC)): 3 of 6

Nc1nc(=S)c2ncn(C3OC(CO)C(O)C3O)c2[nH]1 (centres undefined)
T/C (dose: 1.0 mg/kg/injection, schedule: Q01DX007 (ip), vehicle: carboxymethylcellulose (CMC)): 140 % of control

CN1CC(=O)N=C1N
survivor count (dose: 2500.0 mg/kg/injection, schedule: Q#A X014 (ip), vehicle: water): 1 of 6

CC(=O)Nc1c(Cl)c(Cl)c2c(c1Cl)Cc1cc(Br)ccc1-2
survivor count (dose: 12.0 mg/kg/injection, schedule: Q01DX007 (ip), vehicle: carboxymethylcellulose (CMC)): 2 of 6 | survivor count (dose: 50.0 mg/kg/injection, schedule: Q01DX007 (ip), vehicle: carboxymethylcellulose (CMC)): 1 of 6 | survivor count (dose: 95.0 mg/kg/injection, schedule: Q01DX007 (ip), vehicle: other): 3 of 6

O=[As]O
T/C (dose: 1.68 mg/kg/injection, schedule: Q01DX007 (ip), vehicle: carboxymethylcellulose (CMC)): 132 % of control | T/C (dose: 6.75 mg/kg/injection, schedule: Q01DX007 (ip), vehicle: carboxymethylcellulose (CMC)): 144 % of control | survivor count (dose: 13.3 mg/kg/injection, schedule: Q01DX007 (ip), vehicle: carboxymethylcellulose (CMC)): 4 of 10 | survivor count (dose: 13.5 mg/kg/injection, schedule: Q01DX007 (ip), vehicle: carboxymethylcellulose (CMC)): 5 of 10
